The record followed here is the supplement of paper PMC8728848.

Holding throughout (test): glycan array binding signal (z-score within array); higher = stronger binding
Common to all, as to settings: glycan notation: IUPAC condensed, linker removed

One assay deals with Gal(b1-4)Glc. The essentials: (§1)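 Columns mapping to the same glycan were averaged after glycan names were converted to IUPAC-condensed notation. The data come from 3228 arrays in the Consortium for Functional Glycomics database, limited to those with an available protein sequence. Binding is reported as a within-array Z-score averaged across arrays of one protein sequence and across linkers.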

The target in a further assay is Gal(b1-4)Glc6S. The essentials:
as §1

The target in the next assay is Gal(b1-4)GlcNAc. The essentials:
as §1

Assay [1] deals with Gal(b1-4)GlcNAc(a1-6)Gal(b1-4)GlcNAc. The essentials: as §1
Another assay concerns the target Gal(b1-4)GlcNAc(b1-2)Man. The essentials:
as §1

Assay [2] has as its target Gal(b1-4)GlcNAc(b1-2)Man(a1-3)Man(b1-4)GlcNAc(b1-4)GlcNAc. The essentials:
as §1

The target of assay [3] is Gal(b1-4)GlcNAc(b1-2)Man(a1-3)[Gal(b1-4)GlcNAc(b1-2)Man(a1-6)]Man(b1-4)GlcNAc(b1-4)GlcNAc. The essentials:
as §1

Assay [4] concerns the target Gal(b1-4)GlcNAc(b1-2)Man(a1-3)[Gal(b1-4)GlcNAc(b1-2)Man(a1-6)]Man(b1-4)GlcNAc(b1-4)[Fuc(a1-6)]GlcNAc. The essentials:
as §1

Assay [5] addresses Gal(b1-4)GlcNAc(b1-2)Man(a1-3)[Gal(b1-4)GlcNAc(b1-2)Man(a1-6)][Gal(b1-4)GlcNAc(b1-4)]Man(b1-4)GlcNAc(b1-4)[Fuc(a1-6)]GlcNAc. The essentials:
as §1

Assay [6] addresses Gal(b1-4)GlcNAc(b1-2)Man(a1-3)[Gal(b1-4)GlcNAc(b1-2)Man(a1-6)][GlcNAc(b1-4)]Man(b1-4)GlcNAc(b1-4)[Fuc(a1-6)]GlcNAc. The essentials:
as §1

The target in assay [7] is Gal(b1-4)GlcNAc(b1-2)Man(a1-3)[GlcNAc(b1-2)Man(a1-6)]Man(b1-4)GlcNAc(b1-4)GlcNAc. The essentials:
as §1

Assay [8] has as its target Gal(b1-4)GlcNAc(b1-2)Man(a1-3)[GlcNAc(b1-4)][Gal(b1-4)GlcNAc(b1-2)Man(a1-6)]Man(b1-4)GlcNAc(b1-4)GlcNAc. The essentials:
as §1

The target in assay [9] is Gal(b1-4)GlcNAc(b1-2)Man(a1-3)[Man(a1-6)]Man(b1-4)GlcNAc(b1-4)GlcNAc. The essentials: as §1
For assay [10], the target named is Gal(b1-4)GlcNAc(b1-2)Man(a1-6)Man(b1-4)GlcNAc(b1-4)GlcNAc. The essentials:
as §1

Assay [11] concerns the target Gal(b1-4)GlcNAc(b1-2)Man(a1-6)[GlcNAc(b1-2)Man(a1-3)]Man(b1-4)GlcNAc(b1-4)GlcNAc. The essentials:
as §1

Assay [12] deals with Gal(b1-4)GlcNAc(b1-2)Man(a1-6)[Man(a1-3)]Man(b1-4)GlcNAc(b1-4)GlcNAc. The essentials:
as §1

For assay [13], the target named is Gal(b1-4)GlcNAc(b1-2)[Gal(b1-4)GlcNAc(b1-4)]Man(a1-3)[Gal(b1-4)GlcNAc(b1-2)Man(a1-6)]Man(b1-4)GlcNAc(b1-4)GlcNAc. The essentials: as §1
Assay [14] concerns the target Gal(b1-4)GlcNAc(b1-2)[Gal(b1-4)GlcNAc(b1-4)]Man(a1-3)[Gal(b1-4)GlcNAc(b1-2)[Gal(b1-4)GlcNAc(b1-6)]Man(a1-6)]Man(b1-4)GlcNAc(b1-4)GlcNAc. The essentials: as §1
Assay [15] deals with Gal(b1-4)GlcNAc(b1-2)[Gal(b1-4)GlcNAc(b1-4)]Man(a1-3)[GlcNAc(b1-4)][Gal(b1-4)GlcNAc(b1-2)Man(a1-6)]Man(b1-4)GlcNAc(b1-4)GlcNAc. The essentials:
as §1

Assay [16] concerns the target Gal(b1-4)GlcNAc(b1-2)[Gal(b1-4)GlcNAc(b1-4)]Man(a1-3)[GlcNAc(b1-4)][Gal(b1-4)GlcNAc(b1-2)[Gal(b1-4)GlcNAc(b1-6)]Man(a1-6)]Man(b1-4)GlcNAc(b1-4)GlcNAc. The essentials:
as §1

Assay [17] addresses Gal(b1-4)GlcNAc(b1-2)[Gal(b1-4)GlcNAc(b1-6)]Man(a1-6)[Gal(b1-4)GlcNAc(b1-2)Man(a1-3)]Man(b1-4)GlcNAc(b1-4)GlcNAc. The essentials: as §1
The target of assay [18] is Gal(b1-4)GlcNAc(b1-2)[Gal(b1-4)GlcNAc(b1-6)]Man(a1-6)[Gal(b1-4)GlcNAc(b1-2)Man(a1-3)]Man(b1-4)GlcNAc(b1-4)[Fuc(a1-6)]GlcNAc. The essentials: as §1

The list shows a part of the results.

B1: YghJ (Escherichia coli), E3PJ90 (protein)
chain: MNKKFKYKKSLLAAILSATLLAGCDGGGSGSSSDTPPVDSGTGSLPEVKPDPTPNPEPTPEPTPDPEPTPEPIPDPEPTPEPEPEPVPTKTGYLTLGGSQRVTGATCNGESSDGFTFKPGEDVTCVAGNTTIATFNTQSEAARSLRAVEKVSFSLEDAQELAGSDDKKSNAVSLVTSSNSCPANTEQVCLTFSSVIESKRFDSLYKQIDLAPEEFKKLVNEEVENNAATDKAPSTHTSPVVPVTTPGTKPDLNASFVSANAEQFYQYQPTEIILSEGRLVDSQGYGVAGVNYYTNSGRGVTGENGEFSFSWGEAISFGIDTFELGSVRGNKSTIALTELGDEVRGANIDQLIHRYSTTGQNNTRVVPDDVRKVFAEYPNVINEIINLSLSNGATLGEGEQVVNLPNEFIEQFNTGQAKEIDTAICAKTDGCNEARWFSLTTRNVNDGQIQGVINKLWGVDTNYKSVSKFHVFHDSTNFYGSTGNARGQAVVNISNAAFPILMARNDKNYWLAFGEKRAWDKNELAYITEAPSIVRPENVTRETASFNLPFISLGQVGDGKLMVIGNPHYNSILRCPNGYSWNGGVNKDGQCTLNSDPDDMKNFMENVLRYLSNDRWLPDAKSSMTVGTNLETVYFKKHGQVLGNSAPFAFHKDFTGITVKPMTSYGNLNPDEVPLLILNGFEYVTQWGSDPYSIPLRADTSKPKLTQQDVTDLIAYMNKGGSVLIMENVMSNLKEESASGFVRLLDAAGLSMALNKSVVNNDPQGYPDRVRQRRSTPIWVYERYPAVDGKPPYTIDDTTKEVIWKYQQENKPDDKPKLEVASWQEEVEGKQVTQFAFIDEADHKTPESLAAAKQRILDAFPGLEVCKDSDYHYEVNCLEYRPGTDVPVTGGMYVPQYTQLDLSADTAKAMLQAADLGTNIQRLYQHELYFRTNGRQGERLNSVDLERLYQNMSVWLWNETKYRYEEGKEDELGFKTFTEFLNCYTNNAYVGTQCSAELKKSLIDNKMIYGEESSKAGMMNPSYPLNYMEKPLTRLMLGRSWWDLNIKVDVEKYPGVVNTNGETVTQNINLYSAPTKWFAGNMQSTGLWAPAQQEVSIESKSTVPVTVTVALADDLTGREKHEVSLNRPPRVTKTYDLKANDKVTFKVPYGGLIYIKGDSKEVQSADFTFTGVVKAPFYKDGKWQHDLNSPAPLGELESASFVYTTPKKNLNASNYTGGLEQFANDLDTFASSMNDFYGRDSEDGKHRMFTYKNLPGHKHRFANDVQISIGDAHSGYPVMNSSFSPNSTTLPTTPLNDWLIWHEVGHNAAETPLTVPGATEVANNVLALYMQDRYLGKMNRVADDITVAPEYLEESNGQAWARGGAGDRLLMYAQLKEWAEKNFDIKKWYPDGTPLPEFYSEREGMKGWNLFQLMHRKARGDEVSNDKFGGKNYCAESNGNAADTLMLCASWVAQTDLSEFFKKWNPGANAYQLPGASEMSFEGGVSQSAYNTLASLDLPKPEQGPETINQVTEHKMSAE
Take B1: the “glycan array binding signal (z-score)” value is 0.319 with Gal(b1-4)Glc; -0.439 with Gal(b1-4)Glc6S; -0.195 with Gal(b1-4)GlcNAc; 0.239 in assay [1]; -0.325 with Gal(b1-4)GlcNAc(b1-2)Man; 1.19 in assay [2]. Also, the “glycan array binding signal (z-score)” value in [3] is -0.174; in assay [4] it was 2.37; in assay [5], -0.289; in assay [6], 0.597; in assay [7] it was -0.144; in assay [8], 0.81. In addition, the “glycan array binding signal (z-score)” value in assay [9] was -0.741; in assay [10], -0.601; in assay [11], -0.15; in assay [12], 0.902; in [13], -0.243; in [14], -0.981. Moreover, the “glycan array binding signal (z-score)” value in assay [15] is 1.06; in [16], 0.332; in [17] it was 0.576; in assay [18] it was -1.68.
